In patent publication CN116724055A one finds binding data, which are given here for 18 molecules.

Results are given in words; binding and its absence hold for the method and conditions named. A result given as binding can be weak or reduced; the word gives no strength.

For assay [1], the target named is hIL1RAP(21-367) (人). Put plainly: BLI (BLItz), protein A sensor.
Assay [2] concerns the target hIL1RAP(21-367) (人). Put plainly: binding ELISA, coated hIL1RAP aa21-367. (ELISA stands for enzyme-linked immunosorbent assay.)
In assay [3] the target is hIL1RAP(21-367) (人). Briefly: conclusion of Example 10 (ELISA, BLI).
Assay [4] concerns the target hIL1RAP(21-367) (人). Put plainly: ELISA on coated IL1RAP orthologs.

B1: h48D2 VH5:VL3 (antibody, human IgG1, kappa, L234A L235A, V domains shown)
VH: QEQLEESGGGLVKPGGTLSLTCTVSGPSLSHFDITWIRQAPGSGLEWIGTISPGVSTYYASWAKSRVTISVDTSLNTVSLKLSSVTAADTATYFCARGGVGSSWKAFDLWGPGTLVTISS
VL: DILLTQTPSVVSASVGDRVTITCQASESISTALAWYQQKPGQAPRLLIYKASTLPSGVPSRFRGSGSGTDFTLTITSLQPEDFATYYCQQGFSSGNVHNAFGGGTRLEIKR
As for B1, the binding result with hIL1RAP(21-367) (人) [1] and in the assay with hIL1RAP(21-367) (人) [2] was “binds” in each case.

B2: h48D2 VH3:VL5 (antibody, human IgG1, kappa, L234A L235A, V domains shown)
VH: EVQLLESGGGLVLPGGSLRLSCAASGPSLSHFDITWVRQAPGKGLEWVSTISPGVSTYYASWAKSRFTISRDNSKNTLYLQMSSLRAEDTAVYYCARGGVGSSWKAFDLWGLGTTVTVSS
VL: APVLTQSPATLEASVGDRVTITCQASESISTALAWYQQKPGQPPKLLIYKASTLPSGVPSRFSGSGSGTEFTLTISDLESDDAATYYCQQGFSSGNVHNAFGGGTEVVVKR
In the case of B2, the binding entry with hIL1RAP(21-367) (人) [1] and with hIL1RAP(21-367) (人) [2] was “binds” in each case.

B3: h48D2 VH1:VL5 (antibody, human IgG1, kappa, L234A L235A, V domains shown)
VH: EVQLEESGGGLVKPGGSLRLSCAASGPSLSHFDITWVRQAPGKGLEWVSTISPGVSTYYASWAKSRFTISRDNSKNTLYLQMNSLRAEDTAVYYCARGGVGSSWKAFDLWGRGTLVTVSS
VL: APVLTQSPATLEASVGDRVTITCQASESISTALAWYQQKPGQPPKLLIYKASTLPSGVPSRFSGSGSGTEFTLTISDLESDDAATYYCQQGFSSGNVHNAFGGGTEVVVKR
On to B3, for which the binding entry with hIL1RAP(21-367) (人) [1] and with hIL1RAP(21-367) (人) [2] was “binds” throughout.

B4: h48D2 VH4:VL5 (antibody, human IgG1, kappa, L234A L235A, V domains shown)
VH: QVQLQESGPGLVKPSETLSLTCTVSGPSLSHFDITWIRQPPGKGLEWIGTISPGVSTYYASWAKSRFTISVDTSKNQFSLKLTSVTAADTATYYCARGGVGSSWKAFDLWGPGTLVTVSS
VL: APVLTQSPATLEASVGDRVTITCQASESISTALAWYQQKPGQPPKLLIYKASTLPSGVPSRFSGSGSGTEFTLTISDLESDDAATYYCQQGFSSGNVHNAFGGGTEVVVKR
On to B4, for which the binding entry with hIL1RAP(21-367) (人) [1] and in the assay with hIL1RAP(21-367) (人) [2] was “binds” in each case.

B5: h48D2 VH1:VL3 (antibody, human IgG1, kappa, L234A L235A, V domains shown)
VH: EVQLEESGGGLVKPGGSLRLSCAASGPSLSHFDITWVRQAPGKGLEWVSTISPGVSTYYASWAKSRFTISRDNSKNTLYLQMNSLRAEDTAVYYCARGGVGSSWKAFDLWGRGTLVTVSS
VL: DILLTQTPSVVSASVGDRVTITCQASESISTALAWYQQKPGQAPRLLIYKASTLPSGVPSRFRGSGSGTDFTLTITSLQPEDFATYYCQQGFSSGNVHNAFGGGTRLEIKR
Regarding B5, the binding entry with hIL1RAP(21-367) (人) [1] and with hIL1RAP(21-367) (人) [2] was “binds” in each case.

B6: h48D2 VH1:VL4 (antibody, human IgG1, kappa, L234A L235A, V domains shown)
VH: EVQLEESGGGLVKPGGSLRLSCAASGPSLSHFDITWVRQAPGKGLEWVSTISPGVSTYYASWAKSRFTISRDNSKNTLYLQMNSLRAEDTAVYYCARGGVGSSWKAFDLWGRGTLVTVSS
VL: ELVMTQSPSSVSASVGDRVTITCQASESISTALAWYQQKPGKAPKLLIYKASTLPSGVPSRFSGSGSGTDFTLTINSLQPEDFATYYCQQGFSSGNVHNAFGGGTKVEIKR
B6: the binding result with hIL1RAP(21-367) (人) [1] and with hIL1RAP(21-367) (人) [2] was “binds” throughout.

B7: h48D2 VH1:VL2 (antibody, human IgG1, kappa, L234A L235A, V domains shown)
VH: EVQLEESGGGLVKPGGSLRLSCAASGPSLSHFDITWVRQAPGKGLEWVSTISPGVSTYYASWAKSRFTISRDNSKNTLYLQMNSLRAEDTAVYYCARGGVGSSWKAFDLWGRGTLVTVSS
VL: QIVLTQSPATLSASVGDRVTITCQASESISTALAWYQQKPGKAPKLLIYKASTLPSGVPSRFSGSGSGTEFTLTISSLQPDDSATYYCQQGFSSGNVHNAFGQGTKLEIKR
As to B7, the binding entry with hIL1RAP(21-367) (人) [1] and with hIL1RAP(21-367) (人) [2] was “binds” throughout.

B8: h48D2 VH1:VL1 (antibody, human IgG1, kappa, L234A L235A, V domains shown)
VH: EVQLEESGGGLVKPGGSLRLSCAASGPSLSHFDITWVRQAPGKGLEWVSTISPGVSTYYASWAKSRFTISRDNSKNTLYLQMNSLRAEDTAVYYCARGGVGSSWKAFDLWGRGTLVTVSS
VL: DIVMTQSPSSLSASVGDRVTITCQASESISTALAWYQQKPGKAPKLLIYKASTLPSGVPSRFSGSGSGTDFTLTISSLQPEDFATYYCQQGFSSGNVHNAFGGGTKVVIKR
As for B8, the binding entry with hIL1RAP(21-367) (人) [1] and with hIL1RAP(21-367) (人) [2] was “binds” each time.

B9: 嵌合48D2 (antibody, V domains shown)
VH: QEQLEESGGGLVKPGGSLTLTCTVSGPSLSHFDITWVRQAPGSGLEWIGTISPGVSTYYASWAKSRSTITSNTNLNTVTLKMTSLTAADTATYFCARGGVGSSWKAFDLWGPGTLVTISS
VL: APVLTQTPASVEVAVGGTVTIKCQASESISTALAWYQQKPGQPPKLLIYKASTLPSGVSSRFKGSGSGTEFALTISDLECDDAATYYCQQGFSSGNVHNAFGGGTEVVVK
For the molecule B9, the binding result in the assay with hIL1RAP(21-367) (人) [1], with hIL1RAP(21-367) (人) [3] and with hIL1RAP(21-367) (人) [4] was “binds” each time.

B10: h48D2 VH4:VL1 (antibody, human IgG1, kappa, L234A L235A, V domains shown)
VH: QVQLQESGPGLVKPSETLSLTCTVSGPSLSHFDITWIRQPPGKGLEWIGTISPGVSTYYASWAKSRFTISVDTSKNQFSLKLTSVTAADTATYYCARGGVGSSWKAFDLWGPGTLVTVSS
VL: DIVMTQSPSSLSASVGDRVTITCQASESISTALAWYQQKPGKAPKLLIYKASTLPSGVPSRFSGSGSGTDFTLTISSLQPEDFATYYCQQGFSSGNVHNAFGGGTKVVIKR
B10: the binding result with hIL1RAP(21-367) (人) [1] and with hIL1RAP(21-367) (人) [2] was “binds” throughout.

B11: h48D2 VH4:VL2 (antibody, human IgG1, kappa, L234A L235A, V domains shown)
VH: QVQLQESGPGLVKPSETLSLTCTVSGPSLSHFDITWIRQPPGKGLEWIGTISPGVSTYYASWAKSRFTISVDTSKNQFSLKLTSVTAADTATYYCARGGVGSSWKAFDLWGPGTLVTVSS
VL: QIVLTQSPATLSASVGDRVTITCQASESISTALAWYQQKPGKAPKLLIYKASTLPSGVPSRFSGSGSGTEFTLTISSLQPDDSATYYCQQGFSSGNVHNAFGQGTKLEIKR
Regarding B11, the binding result in the assay with hIL1RAP(21-367) (人) [1] and in the assay with hIL1RAP(21-367) (人) [2] was “binds” throughout.

B12: h48D2 VH5.GL:VL4 (antibody, human IgG1, kappa, L234A L235A, V domains shown)
VH: QEQLEESGGGLVKPGGTLSLTCTVSGPSLSHFDITWIRQPPGKGLEWIGTISPGVSTYYASWAKSRVTISVDTSLNTVSLKLSSVTAADTATYFCARGGVGSSWKAFDLWGPGTLVTISS
VL: ELVMTQSPSSVSASVGDRVTITCQASESISTALAWYQQKPGKAPKLLIYKASTLPSGVPSRFSGSGSGTDFTLTINSLQPEDFATYYCQQGFSSGNVHNAFGGGTKVEIKR
B12: the binding entry with hIL1RAP(21-367) (人) [1], with hIL1RAP(21-367) (人) [2] and with hIL1RAP(21-367) (人) [4] was “binds” in each case.

B13: h48D2 VH5:VL2 (antibody, human IgG1, kappa, L234A L235A, V domains shown)
VH: QEQLEESGGGLVKPGGTLSLTCTVSGPSLSHFDITWIRQAPGSGLEWIGTISPGVSTYYASWAKSRVTISVDTSLNTVSLKLSSVTAADTATYFCARGGVGSSWKAFDLWGPGTLVTISS
VL: QIVLTQSPATLSASVGDRVTITCQASESISTALAWYQQKPGKAPKLLIYKASTLPSGVPSRFSGSGSGTEFTLTISSLQPDDSATYYCQQGFSSGNVHNAFGQGTKLEIKR
Turning to B13, the binding result with hIL1RAP(21-367) (人) [1] and in the assay with hIL1RAP(21-367) (人) [2] was “binds” each time.

B14: h48D2 VH5:VL4 (antibody, human IgG1, kappa, L234A L235A, V domains shown)
VH: QEQLEESGGGLVKPGGTLSLTCTVSGPSLSHFDITWIRQAPGSGLEWIGTISPGVSTYYASWAKSRVTISVDTSLNTVSLKLSSVTAADTATYFCARGGVGSSWKAFDLWGPGTLVTISS
VL: ELVMTQSPSSVSASVGDRVTITCQASESISTALAWYQQKPGKAPKLLIYKASTLPSGVPSRFSGSGSGTDFTLTINSLQPEDFATYYCQQGFSSGNVHNAFGGGTKVEIKR
As for B14, the binding entry in the assay with hIL1RAP(21-367) (人) [1] and in the assay with hIL1RAP(21-367) (人) [2] was “binds” in each case.

B15: h48D2 VH2:VL1 (antibody, human IgG1, kappa, L234A L235A, V domains shown)
VH: EVQLVESGGALVQPGGSLRLSCIVSGPSLSHFDITWFRQAPGKGLEWVATISPGVSTYYASWAKSRFTISTDTSKNTLFLQMDSLRAEDTAVYYCARGGVGSSWKAFDLWGPGTLVTVSS
VL: DIVMTQSPSSLSASVGDRVTITCQASESISTALAWYQQKPGKAPKLLIYKASTLPSGVPSRFSGSGSGTDFTLTISSLQPEDFATYYCQQGFSSGNVHNAFGGGTKVVIKR
On to B15, for which the binding result with hIL1RAP(21-367) (人) [1] and with hIL1RAP(21-367) (人) [2] was “binds” each time.

B16: h48D2 VH4:VL3 (antibody, human IgG1, kappa, L234A L235A, V domains shown)
VH: QVQLQESGPGLVKPSETLSLTCTVSGPSLSHFDITWIRQPPGKGLEWIGTISPGVSTYYASWAKSRFTISVDTSKNQFSLKLTSVTAADTATYYCARGGVGSSWKAFDLWGPGTLVTVSS
VL: DILLTQTPSVVSASVGDRVTITCQASESISTALAWYQQKPGQAPRLLIYKASTLPSGVPSRFRGSGSGTDFTLTITSLQPEDFATYYCQQGFSSGNVHNAFGGGTRLEIKR
On to B16, for which the binding entry in the assay with hIL1RAP(21-367) (人) [1] and with hIL1RAP(21-367) (人) [2] was “binds” each time.

B17: h48D2 VH4:VL4 (antibody, human IgG1, kappa, L234A L235A, V domains shown)
VH: QVQLQESGPGLVKPSETLSLTCTVSGPSLSHFDITWIRQPPGKGLEWIGTISPGVSTYYASWAKSRFTISVDTSKNQFSLKLTSVTAADTATYYCARGGVGSSWKAFDLWGPGTLVTVSS
VL: ELVMTQSPSSVSASVGDRVTITCQASESISTALAWYQQKPGKAPKLLIYKASTLPSGVPSRFSGSGSGTDFTLTINSLQPEDFATYYCQQGFSSGNVHNAFGGGTKVEIKR
Consider B17, for which the binding result in the assay with hIL1RAP(21-367) (人) [1] and with hIL1RAP(21-367) (人) [2] was “binds” throughout.

B18: h48D2 VH5:VL1 (antibody, human IgG1, kappa, L234A L235A, V domains shown)
VH: QEQLEESGGGLVKPGGTLSLTCTVSGPSLSHFDITWIRQAPGSGLEWIGTISPGVSTYYASWAKSRVTISVDTSLNTVSLKLSSVTAADTATYFCARGGVGSSWKAFDLWGPGTLVTISS
VL: DIVMTQSPSSLSASVGDRVTITCQASESISTALAWYQQKPGKAPKLLIYKASTLPSGVPSRFSGSGSGTDFTLTISSLQPEDFATYYCQQGFSSGNVHNAFGGGTKVVIKR
As for B18, the binding entry in the assay with hIL1RAP(21-367) (人) [1] and with hIL1RAP(21-367) (人) [2] was “binds” throughout.
